# Source: the supplement of paper PMC3334620
# Whole data set: some 33,000 sequences, median “E-score (-0.5 to 0.5)” near -0.016, cut for the highest 2% near 0.3. This is one part of the list.
# Target: T1, Yer184c (UniProt P39961)
# T1 sequence: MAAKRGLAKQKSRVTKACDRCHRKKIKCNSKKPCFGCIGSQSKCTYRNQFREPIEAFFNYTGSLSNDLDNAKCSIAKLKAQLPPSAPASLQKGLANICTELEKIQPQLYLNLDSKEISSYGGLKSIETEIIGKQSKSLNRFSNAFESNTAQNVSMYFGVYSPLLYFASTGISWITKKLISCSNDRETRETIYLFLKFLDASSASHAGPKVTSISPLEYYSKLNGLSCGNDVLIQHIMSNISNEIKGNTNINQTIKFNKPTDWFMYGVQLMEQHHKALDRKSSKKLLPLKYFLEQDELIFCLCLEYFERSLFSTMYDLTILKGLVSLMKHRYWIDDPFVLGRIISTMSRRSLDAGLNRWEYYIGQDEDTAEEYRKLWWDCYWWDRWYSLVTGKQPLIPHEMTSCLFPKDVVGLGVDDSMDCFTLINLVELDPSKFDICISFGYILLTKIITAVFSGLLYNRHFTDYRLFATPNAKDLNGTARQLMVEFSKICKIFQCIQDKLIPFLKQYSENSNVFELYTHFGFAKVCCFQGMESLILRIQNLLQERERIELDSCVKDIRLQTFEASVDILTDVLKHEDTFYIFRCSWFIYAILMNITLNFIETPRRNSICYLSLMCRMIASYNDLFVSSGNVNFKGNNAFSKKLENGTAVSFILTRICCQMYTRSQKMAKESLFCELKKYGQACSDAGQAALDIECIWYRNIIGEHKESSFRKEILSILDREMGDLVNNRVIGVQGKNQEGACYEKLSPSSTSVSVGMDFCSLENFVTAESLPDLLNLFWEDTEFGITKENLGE
# Assay: PBM E-score (8-mer binding enrichment) (E-score (-0.5 to 0.5)); higher = stronger / more preferred TF binding
# Settings: protein concentration: 100 nM; construct: GST-full length
# Procedure: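 Universal 'all 10-mer' protein binding microarrays (Agilent AMADID 015681) probed with GST-tagged S. cerevisiae TFs (full-length or DBD) made by in vitro transcription/translation (PURExpress), about 100-200 nM. Bound TF was detected with fluorescent anti-GST. Each ungapped 8-mer (which stands for itself and its reverse complement) is scored by the PBM enrichment score (E-score), a modified Wilcoxon-Mann-Whitney statistic from -0.5 to +0.5, computed with the Universal PBM Analysis Suite. Scale: above 0.35 generally sequence-specific binding.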
row,Sequence,PBM E-score
1,CGCATTGC,0.108
2,AACCGATC,0.0319
3,GTCACATA,0.127
4,CTCTCTCA,-0.085
5,CATCTCAC,-0.0202
6,CTCCGGCC,0.125
7,CACACACC,-0.0823
8,AAGGATTG,0.0885
9,ACATCGTG,-0.0241
10,AGCACCAA,-0.0172
11,CCATCCGC,-0.0867
12,AAGTTTGT,0.188
13,TGGCGTAA,-0.0515
14,CCTCAAGG,-0.142
15,CAAGGCAG,-0.269
16,AGGCGTGA,-0.181
17,CGATCCAC,-0.197
18,ATGCAGGC,-0.185
19,AAAGAGGC,-0.258
20,ACTGACAC,-0.0181
21,AAGGGAAT,-0.178
22,ATTCCACC,0.205
23,GAGCCGAA,0.372
24,ATCGAAGA,0.214
25,GCCCCCAC,-0.344

row,Sequence,PBM E-score
1,CTCCTCTC,-0.281
2,TACAGCCA,-0.153
3,TTCCACAA,0.21
4,CGTAATAA,-0.0248
5,CGCACTAA,0.0791
6,ACGAGGAC,-0.0738
7,CGTATCGC,-0.00721
8,AGCTACAC,0.00807
9,CGGCTGAC,0.172
10,CTTCTCGC,-0.0175
11,CGGTTGCA,-0.00495
12,ACGAATCG,0.126
13,CGGAGCCG,0.309
14,GATACAGA,0.11
15,AGCGAACG,-0.0892
16,ATTTCGCC,0.162
17,CGTTTCTA,0.0816
18,ATCATGAG,-0.0705
19,GATACCTA,0.021
20,CCCACGAA,-0.0234
21,CTTAGGAC,-0.147
22,TACTAGCA,0.083
23,AGTGTTTG,0.00995
24,TCCAGTAA,-0.111
25,ACATTTAG,-0.136

# As entered above:
# Value of AACCGATC under PBM E-score: 0.0319
# Value of CAAGGCAG under PBM E-score: -0.269
# Value of CGGAGCCG under PBM E-score: 0.309
# Value of CGGTTGCA under PBM E-score: -0.00495
# Value of GATACCTA under PBM E-score: 0.021
# Value of ACATTTAG under PBM E-score: -0.136
# Value of AGCTACAC under PBM E-score: 0.00807

# Additional entries follow.

row,Sequence,PBM E-score
1,TCGATCGA,0.177
2,AATCCTGG,-0.137
3,GATAGGTA,-0.00859
4,GCTCGCGA,0.0684
5,CGCCGTGC,0.0229
6,CATGCCAG,-0.161
7,GTTCTCTA,0.0528
8,CGCTTAGA,-0.255
9,GAAGGTGC,-0.205
10,AAACCCTT,-0.201
11,GATATCTA,0.00957
12,CATCGCCA,-0.0356
13,AGCGTTAT,-0.102
14,ACGATGTC,-0.0561
15,AACTGGCC,-0.0997
16,CCAAGATA,-0.0391
17,ACACCTAT,-0.124
18,TGTTAGAA,0.0199
19,GGTTTCAC,0.0748
20,GTAACTTA,0.11
21,GGCTGGGA,-0.129
22,GTATAAAA,0.325
23,GCCTCTCA,-0.0722
24,CATCCCGA,0.152
25,TCGTTAGA,0.00759

row,Sequence,PBM E-score
1,CTGTTGGC,-0.181
2,ACAACATG,0.00089
3,AGTTCTAT,-0.0389
4,ATGCGGAG,-0.178
5,ACGAGTGA,-0.0915
6,CGATACTC,-0.087
7,CCGTGAGG,-0.119
8,CCCAGGCA,-0.139
9,AACCTCTC,-0.274
10,AGACGTAC,0.0628
11,AACGGCCG,0.3
12,CAGAAGGG,-0.166
13,ACGCCACG,-0.133
14,GACACACA,0.0256
15,ATCCGCCC,-0.114
16,CCGCCAGA,0.0573
17,AACACCTA,-0.173
18,CACGCAAC,0.17
19,ACGGTCAC,-0.119
20,CCCATGCC,-0.0347
21,CAGCAGCC,-0.134
22,CGTACCAC,-0.0819
23,GCTACCCC,-0.247
24,AGTGACCA,-0.113
25,GGCGCGAA,0.165

row,Sequence,PBM E-score
1,ATATATTA,0.25
2,GTGAACAC,0.00676
3,TCTTAGCA,-0.00501
4,AGTAAGTG,-0.0727
5,CGCGCGAC,0.0196
6,ACACTGTG,-0.0632
7,AAAGGGGA,-0.159
8,TCCGAACA,0.299
9,ACACGCAC,-0.157
10,CGTACGAC,-0.143
11,CAGATCAC,-0.0916
12,GGAGTCGA,-0.134
13,CGTAATTA,0.043
14,CGATGGAG,0.1
15,CGGCAGGC,0.165
16,AGGCAAGG,-0.328
17,ACATATAC,-0.0123
18,ACTGGGAT,-0.0341
19,ATGGACGG,0.128
20,CGGCGGGC,0.142
21,GGTAGTTA,-0.119
22,ACGCTGGG,-0.282
23,GTGATTCA,-0.131
24,ATGCGAGA,-0.0136
25,ACGACGCC,-0.156

row,Sequence,PBM E-score
1,CCGCTGCC,-0.104
2,CAAATACC,0.00872
3,CAGTCCGC,-0.0716
4,CACCGTGG,-0.222
5,AGCTAAAG,-0.0644
6,GGCTGCGA,-0.00955
7,CATCAAAG,-0.0488
8,AAACCTTA,0.0624
9,AAACTATA,0.0975
10,ACTACGTG,-0.343
11,GAGATCTC,0.051
12,ATCCTGTA,0.0808
13,AGCAAATG,-0.155
14,GGCATTAC,0.195
15,TAGAGACA,0.0376
16,ATCGTGAG,-0.0573
17,CGCGTCAA,-0.0817
18,ATACTAAA,0.239
19,AGCCAAAC,-0.0354
20,CGAATCTC,0.0585
21,CTGCGTCC,-0.147
22,CAATCGGG,0.0138
23,GGCTTTAA,0.138
24,ATGGTGGC,-0.362
25,GGAACGGA,0.246

row,Sequence,PBM E-score
1,AAAAGTGA,0.0899
2,GAGTCATA,-0.0293
3,ATATTTAC,0.202
4,CGCCTAGC,-0.33
5,GCACGCAA,-0.206
6,AGTAACAA,0.179
7,CGCCTACA,-0.216
8,CTACAGAG,0.0273
9,GGAATATA,0.227
10,TATGTAGA,0.00224
11,AGATGAGC,-0.012
12,CACGAGGA,-0.0877
13,CCGAGCTA,0.156
14,CATGCAAG,-0.197
15,AGGTTAGA,-0.138
16,AGTTCACA,0.0196
17,TCAATCAA,0.0772
18,CGTGCCTA,-0.265
19,CTCAGGCC,-0.206
20,ATCCCCCC,-0.411
21,CGTATATC,-0.0616
22,ACCGCAAC,0.131
